In patent US12643892B2, “Pyridazinone compounds for the treatment of neuromuscular diseases” (Edgewise Therapeutics, Inc., priority 2020, dated 2026):
For at least one compound, name, drawing or mass did not settle the structure.

Molecular target: Skeletal Myofibril ATPase (Rabbit Psoas myofibrils)
Assay: Skeletal Myofibril ATPase Assay
Format: biochemical
Settings: PK/LDH-coupled NADH absorbance at 340 nm
Protocol: Overview: Myosin ATPase activity was assessed by using a coupled reaction system, in which ADP generated by the myosin ATPase function was coupled to the disappearance of NADH through the pyruvate kinase/lactate dehydrogenase (PK-LDH) system. Myosin ATPase activity produces ADP, which was used as a substrate for PK to produce pyruvate and regenerate ATP. The pyruvate was then used as a substrate by LDH to oxidize NADH to NAD+. The rate of the reaction was monitored through the time-dependent disappearance of NADH using absorbance at 340 nm. […]
Skeletal Myofibril ATPase Assay Procedure: BSA, ATP, NADH, PEP, and DTT solutions were thawed at room temperature, then transferred to ice. […] The absorbance within the wells was measured at 340 nm, using a kinetic protocol in which the wells are read every 1.5-2 min for 1 h. The reaction rate was qualitatively assessed by subtracting the minimum absorbance value from the maximum value for each well, using either the SoftMax Pro plate reader software or a spreadsheet program such as Excel. Using GraphPad Prism 8.0, the data was normalized, with 100% activity defined as the absorbance change in the 1% DMSO vehicle wells and 0% assigned to no change in absorbance over the course of the experiment. […]

Row | SMILES | IC50
1 | CCNC(=O)Cn1nc(-c2nc(-c3ccc(Cl)cc3)no2)ccc1=O [Compound 17, 2-(3-(3-(4-chlorophenyl)-1,2,4-oxadiazol-5-yl)-6-oxopyridazin-1(6H)-yl)-N-ethylacetamide] | ≤ 10 µM
2 | COc1ccc(Cn2nc(-c3cccs3)ccc2=O)cc1 [Compound 60, 2-(4-methoxybenzyl)-6-(thiophen-2-yl)pyridazin-3(2H)-one] | > 100 µM
